Measured values taken from article PMC5339707, “ACCORD: an assessment tool to determine the orientation of homodimeric coiled-coils” (Scientific Reports, 2017).

Biological target: the molecule itself
Experiment: SEC-MALS; self-association of His6-SspB-CCD fusion proteins (ACCORD); Superdex 200 10/300 GL, 50 mM Tris pH 8.0, 0.5 mM TCEP, 200 mM NaCl; sample 3-5 mg/ml, 0.5 ml

B1: His6-SspB-GCN4 (249-281) fusion protein (other, E. coli | S. cerevisiae, UniProt P0AFZ3 1-165, looked up)
chain: MDLSQLTPRRPYLLRAFYEWLLDNQLTPHLVVDVTLPGVQVPMEYARDGQIVLNIAPRAVGNLELANDEVRFNARFGGIPRQVSVPLAAVLAIYARENGAGTMFEPEAAYDEDTSIMNDEEASADNETVMSVIDGDKPDHDDDTHPDDEPPQPPRGGRPALRVVKRMKQLEDKVEELLSKNYHLENEVARLKKLVGER
notes: Stringent starvation protein B (SspB), E. coli, full length, residues 1-165 (M1-K165), amplified from genomic DNA; General control protein GCN4, S. cerevisiae, coiled-coil domain, residues 249-281 (R249-R281); CCD ligated behind SspB in the His6-SspB vector (BamHI at the 5' end); vector holds TEV and thrombin cleavage sites; source: E. coli BL21(DE3), purified (HisTrap, Superdex 200); not shown: …
stoichiometry N: 2
